# Source: PubChem BioAssay AID1259308 (NCATS, 2017)
# Aim: 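Candidate targets for better recombinant protein yield in mammalian cells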 (primary screen)
# System: human HEK293 embryonic kidney cells stably expressing firefly luciferase (HEK-CMV-Luc2-Hygro)
# Reagent: single siRNA against human genes, 0.8 pmol siRNA per well
# Timing: 72 h
# Measured: 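Luciferase light (ONE-Glo) measured on one replicate plate set and viability (CellTiter-Glo) on the other, scaled to a negative control siRNA, with robust z-scores and luciferase per cell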
# Scale: total luciferase, z-score and total luciferase, % of control: higher = more reporter protein produced
# Call rule: 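An siRNA counts as active if its total luciferase robust z-score exceeds 3; genes with two or more such siRNAs out of three were retested with fresh siRNAs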
# Calls: active = raised luciferase; inactive = no rise
# The whole screen tested about 59,000 reagents; shown is a random part of them. In the full data, about 1,510 (2.6%) are marked active. 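Calls use total luciferase alone and ignore viability, so some active siRNAs may act by altering cell number.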 Reagents against one gene are numbered here. Not all columns of the deposit are shown. Reagent sequences are not shown.
target,reagent no.,"total luciferase, z-score","total luciferase, % of control",Outcome
POU6F2,1,-0.412,73.7,inactive
POU6F2,2,-1.01,61.8,inactive
POU6F2,3,2.24,127,inactive
SOCS2,1,0.101,83.9,inactive
SOCS2,2,-0.789,66.2,inactive
SOCS2,3,0.196,85.8,inactive
CALCOCO1,1,0.141,84.7,inactive
CALCOCO1,2,-1.23,57.5,inactive
CALCOCO1,3,-0.112,79.7,inactive
NPFFR2,1,-0.309,75.7,inactive
NPFFR2,2,-0.601,69.9,inactive
NPFFR2,3,-0.212,77.7,inactive
ZNF551,1,0.302,87.9,inactive
ZNF551,2,-1.06,60.7,inactive
ZNF551,3,-0.726,67.4,inactive
LGALS13,1,0.694,95.7,inactive
LGALS13,2,-1.08,60.3,inactive
LGALS13,3,0.427,90.4,inactive
SHISAL2A,1,0.472,91.3,inactive
SHISAL2A,2,-1.01,61.7,inactive
SHISAL2A,3,0.00926,82.1,inactive
TOP3A,1,0.573,93.3,inactive
TOP3A,2,-1.02,61.6,inactive
TOP3A,3,4.99,181,active

Reprinted from above (3 entries):
target,reagent no.,"total luciferase, z-score","total luciferase, % of control",Outcome
ZNF551,2,-1.06,60.7,inactive
ZNF551,3,-0.726,67.4,inactive
LGALS13,1,0.694,95.7,inactive
